PubChem BioAssay AID652272, Drosophila RNAi Screening Center, 2013
The screen tested about 21,000 reagents; below is a random part of those that have a named target and a result. Of all reagents, 503 (2.4%) got an active call. 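Raw plate light values, not normalised; calls rest on replicate z-scores that were not deposited; hits include reporter decreases as well as increases.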 Names joined by + are all predicted targets of the reagent. Reagent sequences are not shown. The record does not give: the amount of reagent, the time to read-out.

- Test: 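Genes whose knock-down decreases or increases Hedgehog reporter output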 (primary screen)
- Cells: Drosophila clone 8 (Cl8) cells
- Reagents: long dsRNA against Drosophila genes
- Read-out: 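Firefly light from a Hedgehog-responsive ptc promoter reporter and Renilla reference light, both read on a plate reader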
- Scale: firefly Hh reporter signal: higher = more ptc reporter light; Renilla reference signal: higher = more Renilla control light
- Rule for the call: 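Hit when the z-score averaged over two replicates is under -2 or over +3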
- Meaning of the calls: active = hit: reporter lowered or raised; inactive = not a hit

Jon65Aiii [DRSC10649]
- firefly Hh reporter signal, replicate 1: 79348
- firefly Hh reporter signal, replicate 2: 70866
- Renilla reference signal, replicate 1: 3961
- Renilla reference signal, replicate 2: 3099
- call: inactive

Prosalpha4T2 [DRSC04643]
- firefly Hh reporter signal, replicate 1: 68400
- firefly Hh reporter signal, replicate 2: 42361
- Renilla reference signal, replicate 1: 1323
- Renilla reference signal, replicate 2: 4272
- call: inactive

Srg2 [DRSC10681]
- firefly Hh reporter signal, replicate 1: 60304
- firefly Hh reporter signal, replicate 2: 69696
- Renilla reference signal, replicate 1: 3010
- Renilla reference signal, replicate 2: 2567
- call: inactive

Atx-1 [DRSC18365]
- firefly Hh reporter signal, replicate 1: 96876
- firefly Hh reporter signal, replicate 2: 2.93e5
- Renilla reference signal, replicate 1: 3575
- Renilla reference signal, replicate 2: 9722
- call: inactive

SNCF [DRSC10115]
- firefly Hh reporter signal, replicate 1: 36898
- firefly Hh reporter signal, replicate 2: 39124
- firefly Hh reporter signal, replicate 3: 44195
- Renilla reference signal, replicate 1: 3362
- Renilla reference signal, replicate 2: 2802
- call: inactive

Mal-A3 [DRSC07462]
- firefly Hh reporter signal, replicate 1: 84253
- firefly Hh reporter signal, replicate 2: 47496
- Renilla reference signal, replicate 1: 1916
- Renilla reference signal, replicate 2: 3379
- call: inactive

CG10332 (retired record) + IM18 [DRSC04064]
- firefly Hh reporter signal, replicate 1: 83472
- firefly Hh reporter signal, replicate 2: 62720
- Renilla reference signal, replicate 1: 1908
- Renilla reference signal, replicate 2: 5319
- call: inactive

Individual results from the list.
Under “firefly Hh reporter signal, replicate 1”, Srg2 [DRSC10681] has 60304
Result for Mal-A3 [DRSC07462] in “firefly Hh reporter signal, replicate 2”: 47496

More entries:
Pig1 [DRSC18698]
- firefly Hh reporter signal, replicate 1: 1.24e5
- firefly Hh reporter signal, replicate 2: 1.69e5
- Renilla reference signal, replicate 1: 3302
- Renilla reference signal, replicate 2: 4810
- call: inactive

CG1688 [DRSC05934]
- firefly Hh reporter signal, replicate 1: 52234
- firefly Hh reporter signal, replicate 2: 46427
- Renilla reference signal, replicate 1: 2713
- Renilla reference signal, replicate 2: 1618
- call: inactive

CG7166 [DRSC11809]
- firefly Hh reporter signal, replicate 1: 88230
- firefly Hh reporter signal, replicate 2: 95505
- Renilla reference signal, replicate 1: 3180
- Renilla reference signal, replicate 2: 2952
- call: inactive

CG42534 [DRSC14722]
- firefly Hh reporter signal, replicate 1: 79162
- firefly Hh reporter signal, replicate 2: 64896
- Renilla reference signal, replicate 1: 2967
- Renilla reference signal, replicate 2: 1545
- call: inactive

CG42534 [DRSC14759]
- firefly Hh reporter signal, replicate 1: 82934
- firefly Hh reporter signal, replicate 2: 55824
- Renilla reference signal, replicate 1: 3096
- Renilla reference signal, replicate 2: 1401
- call: inactive

CG42534 [DRSC16072]
- firefly Hh reporter signal, replicate 1: 1.21e5
- firefly Hh reporter signal, replicate 2: 99682
- Renilla reference signal, replicate 1: 4793
- Renilla reference signal, replicate 2: 2372
- call: inactive
